These results are taken from PMC4885489, “Prediction of Drug-Drug Interactions Arising from CYP3A induction Using a Physiologically Based Dynamic Model” (Drug Metabolism and Disposition, 2016).

Where two headings read alike, the source gives them in different places.

Broadly, the Km is the concentration of substrate that gives half-maximal velocity.

The subject of data set [1] is rCYP3A4. To be noted: human.
Data set [2] deals with CYP3A4. To be noted: human, in vivo, cited from earlier work.
The test system of data set [3] is CYP3A4. The settings on record: human, in vivo, cited from earlier work. This is another data set of the same source.
The conditions of data set [4]: in vivo; cited from earlier work.
The subject of data set [5] is rCYP3A4. To be noted: cited from earlier work.

Regarding `COC(=O)C1=C(C)NC(C)=C(C(=O)OC)C1c1ccccc1[N+](=O)[O-]` [Nifedipine, nifedipine], in data set [1], the “rCYP3A4 Vmax” value amounted to 33.8 µL/min/pmol. Also, the results for the AUCi in data set [2] (iv), in data set [2] (po) and in data set [3] were 26.7 (44.9) ng/mL.h, 18.8 (45.7) ng/mL.h and 0.135 (57.8) mg/L.h, respectively. Besides, the AUC is on record as 230 (14.7) ng/mL.h in data set [2] (po, 20 mg) and 0.343 (36.4) mg/L.h in data set [3] (20 mg). The “Vss (Minimal PBPK)” value in data set [4] is listed as 0.57 L/kg. The Km in data set [5] is 11 µM.
